PubChem BioAssay AID1259327 | Drosophila RNAi Screening Center | 2017
Here is one part, drawn at random, of about 3,100 reagents. Over the whole deposit, 378 (12%) are marked active. 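Hits include both directions; z-score sign shows ATP rise or fall; raw luminescence values are not plate-normalised.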 Reagents against one gene are numbered here. A plus sign joins genes that one reagent is predicted to hit. Reagent sequences are not shown. Not stated in the record: the amount of reagent.

- Screen: 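Baseline ATP after transmembrane-protein gene knock-down with water vehicle only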
- Cells: Drosophila S2R+ cells
- Knock-down reagent: long dsRNA against Drosophila genes
- Timing: 5 days (water added on day 4, read one day later)
- Challenge: water added as vehicle, no metal, one day before read-out
- Measurement: 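Total ATP measured by luciferase light, scaled to plate mean, duplicates averaged, then z-scored across plates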
- Direction: ATP z-score: higher = more total ATP than typical wells; ATP luminescence: higher = more total ATP
- Hit rule: 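a hit is any knock-down whose absolute ATP z-score is greater than 1.5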
- Calls: active = hit: ATP up or down; inactive = no clear ATP change

| gene knocked down | reagent no. | ATP z-score, duplicate mean | ATP luminescence, replicate 1 (RLU) | ATP luminescence, replicate 2 (RLU) | outcome |
| --- | --- | --- | --- | --- | --- |
| Gr59e (Gustatory receptor 59e) | 1 | 0.547 | 7.90e5 | 7.79e5 | inactive |
| Gr59e (Gustatory receptor 59e) | 2 | -1.33 | 3.61e5 | 3.90e5 | inactive |
| na (narrow abdomen) | 1 | -0.535 | 4.93e5 | 6.54e5 | inactive |
| na (narrow abdomen) | 2 | 0.517 | 5.83e5 | 6.65e5 | inactive |
| CG15221 | 1 | 1.36 | 7.34e5 | 8.18e5 | inactive |
| Tsp42Eq (Tetraspanin 42Eq) | 1 | -0.22 | 6.19e5 | 5.80e5 | inactive |
| loj (logjam) | 1 | -0.113 | 6.45e5 | 7.95e5 | inactive |
| loj (logjam) | 2 | -3.01 | 3.11e5 | 3.46e5 | active |
| tw (twisted) | 1 | -0.0612 | 7.14e5 | 6.85e5 | inactive |
| tw (twisted) | 2 | -0.923 | 4.01e5 | 4.28e5 | inactive |
| Vha100-1 (Vacuolar H[+] ATPase 100kD subunit 1) | 1 | 0.696 | 7.81e5 | 7.74e5 | inactive |
| Vha100-1 (Vacuolar H[+] ATPase 100kD subunit 1) | 2 | -0.316 | 5.00e5 | 6.21e5 | inactive |
| ppk6 (pickpocket 6) | 1 | 0.0108 | 5.25e5 | 7.17e5 | inactive |
| ppk6 (pickpocket 6) | 2 | -1.69 | 3.55e5 | 5.35e5 | active |
| Octalpha2R (alpha2-adrenergic-like octopamine receptor) | 1 | -0.32 | 3.04e5 | 6.78e5 | inactive |
| Octalpha2R (alpha2-adrenergic-like octopamine receptor) | 2 | 0.486 | 3.04e5 | 8.59e5 | inactive |
| KdelR (KDEL receptor) | 1 | 0.0533 | 4.56e5 | 5.11e5 | inactive |
| Tango5 (Transport and Golgi organization 5) | 1 | -0.932 | 6.26e5 | 5.94e5 | inactive |
| Tango5 (Transport and Golgi organization 5) | 2 | -0.647 | 7.68e5 | 7.24e5 | inactive |
| botv | 1 | -3.39 | 3.24e5 | 4.16e5 | active |
| botv | 2 | -0.573 | 5.46e5 | 9.31e5 | inactive |
| frac (faulty attraction) | 1 | 0.519 | 8.30e5 | 7.41e5 | inactive |
| frac (faulty attraction) | 2 | 0.582 | 9.66e5 | 8.26e5 | inactive |
| Miro (Mitochondrial Rho) | 1 | -0.283 | 6.75e5 | 6.78e5 | inactive |
| Miro (Mitochondrial Rho) | 2 | -0.84 | 3.94e5 | 4.22e5 | inactive |
| Itgbn (Integrin betanu subunit) | 1 | 1.03 | 8.68e5 | 8.03e5 | inactive |
| Itgbn (Integrin betanu subunit) | 2 | 0.0934 | 5.22e5 | 4.46e5 | inactive |
| CG7227 | 1 | -0.298 | 4.62e5 | 4.54e5 | inactive |
| CG7227 | 2 | 0.626 | 4.97e5 | 4.92e5 | inactive |
| CG8389 | 1 | -0.289 | 6.03e5 | 5.07e5 | inactive |
| CG8389 | 2 | -0.405 | 8.11e5 | 7.40e5 | inactive |
| Or49b (Odorant receptor 49b) | 1 | 1.07 | 7.17e5 | 7.16e5 | inactive |
| Or98b (Odorant receptor 98b) | 1 | -0.0408 | 5.71e5 | 5.81e5 | inactive |
| CG9743 | 1 | -0.148 | 5.74e5 | 7.11e5 | inactive |
| CG9743 | 2 | -0.227 | 8.52e5 | 7.44e5 | inactive |
| Rh5 (Rhodopsin 5) | 1 | 0.363 | 4.40e5 | 5.74e5 | inactive |
| Rh5 (Rhodopsin 5) | 2 | -0.044 | 7.73e5 | 9.17e5 | inactive |
| Or98a (Odorant receptor 98a) | 1 | -1.52 | 5.22e5 | 6.43e5 | active |
| Or98a (Odorant receptor 98a) | 2 | -0.215 | 8.44e5 | 8.02e5 | inactive |
| CG4607 | 1 | 0.422 | 5.97e5 | 8.18e5 | inactive |
| Tl (Toll) | 1 | 0.0547 | 7.36e5 | 6.87e5 | inactive |
| Tl (Toll) | 2 | 2.22 | 5.47e5 | 6.49e5 | active |
| CG5281 | 1 | -0.356 | 3.01e5 | 6.79e5 | inactive |
| CG5281 | 2 | -2.01 | 3.73e5 | 4.56e5 | active |
| mAChR-C (muscarinic Acetylcholine Receptor, C-type) | 1 | 0.212 | 7.14e5 | 7.71e5 | inactive |
| mAChR-C (muscarinic Acetylcholine Receptor, C-type) | 2 | -1.2 | 9.35e5 | 9.40e5 | inactive |
| Dh44-R1 (Diuretic hormone 44 receptor 1) | 1 | -0.164 | 6.70e5 | 7.59e5 | inactive |
| Dh44-R1 (Diuretic hormone 44 receptor 1) | 2 | -0.504 | 6.63e5 | 8.51e5 | inactive |
| CG31523 | 1 | 1.37 | 6.98e5 | 1.08e6 | inactive |
| CG31523 | 2 | 1.09 | 9.70e5 | 1.11e6 | inactive |
| PIG-M + CG42380 + CG42379 + 1 more | 1 | -1.23 | 5.94e5 | 6.26e5 | inactive |
| PIG-M + CG42380 + CG42379 + 1 more | 2 | 0.705 | 7.82e5 | 8.31e5 | inactive |
| CG4645 | 1 | -0.847 | 6.10e5 | 6.26e5 | inactive |
| CG4645 | 2 | -1.81 | 6.33e5 | 6.17e5 | active |
| bon + CG15923 | 1 | 0.551 | 4.67e5 | 5.40e5 | inactive |
| CG8534 | 1 | -0.3 | 3.18e5 | 6.47e5 | inactive |
| Cds (CDP-diacylglycerol synthase) | 1 | -1.12 | 6.09e5 | 6.13e5 | inactive |
| ine (inebriated) | 1 | 0.757 | 4.82e5 | 5.86e5 | inactive |
| ine (inebriated) | 2 | 0.153 | 8.90e5 | 7.96e5 | inactive |
| CG10444 | 1 | -1.02 | 6.34e5 | 6.09e5 | inactive |
| CG10444 | 2 | 3.72 | 7.44e5 | 6.90e5 | active |
| CG31663 | 1 | -1.64 | 2.67e5 | 8.83e5 | active |
| CG31663 | 2 | -0.368 | 4.67e5 | 4.38e5 | inactive |
| CG31663 | 3 | -0.779 | 6.84e5 | 6.04e5 | inactive |
| CG31663 | 4 | -1.52 | 5.52e5 | 5.46e5 | active |
| CG32795 | 1 | 0.259 | 7.15e5 | 8.30e5 | inactive |
| CG32795 | 2 | -0.103 | 7.10e5 | 7.54e5 | inactive |
| trn (tartan) | 1 | 2.13 | 1.27e6 | 1.09e6 | active |
| wwk (white walker) | 1 | -0.73 | 6.42e5 | 6.55e5 | inactive |
| Pvr (PDGF- and VEGF-receptor related) | 1 | -2.6 | 3.13e5 | 2.80e5 | active |
| Pvr (PDGF- and VEGF-receptor related) | 2 | 4.59 | 9.70e5 | 9.67e5 | active |
| Pvr (PDGF- and VEGF-receptor related) | 3 | 5.66 | 1.00e6 | 1.12e6 | active |
| AdipoR (Adiponectin receptor) | 1 | 0.431 | 7.78e5 | 7.23e5 | inactive |
| AdipoR (Adiponectin receptor) | 2 | -0.812 | 3.87e5 | 4.11e5 | inactive |
| CG8034 | 1 | -1.14 | 4.58e5 | 5.07e5 | inactive |
| Nup62 (Nucleoporin 62kD) | 1 | -2.36 | 4.17e5 | 5.43e5 | active |
| Trpgamma (Transient receptor potential cation channel gamma) | 1 | 0.324 | 7.48e5 | 7.73e5 | inactive |
| Trpgamma (Transient receptor potential cation channel gamma) | 2 | -1.29 | 3.76e5 | 4.02e5 | inactive |
| Nrx-1 (Neurexin 1) | 1 | 0.411 | 7.44e5 | 7.52e5 | inactive |
| ETHR | 1 | 0.275 | 3.36e5 | 7.29e5 | inactive |
| ETHR | 2 | 0.432 | 9.13e5 | 8.40e5 | inactive |
| rdog (red dog mine) | 1 | 0.788 | 7.82e5 | 7.92e5 | inactive |
| rdog (red dog mine) | 2 | -0.408 | 9.55e5 | 1.09e6 | inactive |
| rdgB (retinal degeneration B) | 1 | -0.0274 | 7.61e5 | 6.86e5 | inactive |
| rdgB (retinal degeneration B) | 2 | -1.06 | 9.88e5 | 9.39e5 | inactive |
| Mvl (Malvolio) | 1 | 0.0966 | 7.65e5 | 6.68e5 | inactive |
| Mvl (Malvolio) | 2 | -0.473 | 3.99e5 | 4.68e5 | inactive |

Only “ATP luminescence, replicate 2 (RLU)” (7 entries from above):
CG31663 #1	8.83e5
CG31663 #2	4.38e5
CG31663 #3	6.04e5
CG31663 #4	5.46e5
CG32795 #1	8.30e5
CG32795 #2	7.54e5
trn (tartan)	1.09e6
